Two sequences from patent publication US4624944A, “Human seminal alpha-inhibins” (The Regents of The University of California, priority 1985, dated 1986) can be followed below.

Where no end group is shown, it is not given here.

Data set [1] has as its system LHRH-induced FSH secretion by mouse pituitary. The experiment in a line: FSH-suppressing (inhibin) activity, in vitro mouse pituitary system. To be noted: dose-response slope. It counts as cell-based. As to the method: FIG. 6 is a graphical illustration of the effect of alpha-IB-31, alpha-IB-52, and alpha-IB-92 on LHRH-induced FSH secretion by mouse pituitary. Means ±SEM (n=5) are shown. On the graph solid circles represent alpha-IB-31; open circles represent alpha-IB-52; solid triangles represent alpha-IB-92.
Disc electrophoresis in polyacrylamide slab gels was performed as described by Reisfield, et al. (1962). The gels were stained with Coomassie Blue (R250). NaDodSO4 gel electrophoresis was carried out as described by Laemmli (1970). The inhibin activity was assayed by the in vitro mouse pituitary system (Yamashiro, et al., 1984; Ramasharma, et al., 1981).
FIG. 6 presents bioassay data for alpha-IB-31, alpha-IB-52 and alpha-IB-92 in suppressing the lutropin-releasing hormone (LHRH)-induced FSH secretion by using mouse pituitaries in vitro. […] The addition of 40 amino acids at the NH2 -terminus of alpha-IB-52 greatly enhance the inhibin activity.

Data set [2] concerns rabbit antiserum to alpha-IB-31. Nature of the data set: RIA of alpha-inhibins using rabbit antiserum to ILP (displacement of labelled [Tyr4]-alpha-IB-31). The format is binding. As to the method: Radioimmunoassay was performed with rabbit antiserum to alpha-IB-31. Amino acid analyses were performed in an automatic amino acid analyzer (Model 119C, Beckman) as described by Spackman, et al. (1958). The NH2 -terminal residue was determined by the dansyl-Edman procedure (Gray, 1967). For COOH-terminal residue analysis, carboxypeptidase Y digests were carried out in 1M pyridine acetate buffer (pH 5.5) for 4 hr at 37° C. with an enzyme-to-substrate ratio of 1:50. Trypsin digestions were performed with an enzyme-to-substrate ratio of 1:50 in 0.05M Tris/0.01 M Mg^2+, pH 8.5, at 37° C. for 4 hr.
Alpha-IB-52 and alpha-IB-92 cross-react to an antiserum raised against alpha-IB-31. They displace labelled [Tyr^4 ]-alpha-IB-31 with 60% of the potency of alpha-IB-31.

On to “HNKQEGRDHDKSKGHFHRVVIHHKGGKAHRG [alpha-IB-31, alpha-inhibin-31, reference compound]”, for which, in data set [1], the “Slope (FSH-suppressing activity)” value was 0.548. Also, the “Slope (RIA)” value in data set [2] turned out to be 1.17.

For “HNKQEGRDHDKSKGHFHRVVIHHKGGKAHRGTQNPSQDQGNSPSGKGISSQY [alpha-IB-52, alpha-inhibin-52]”, the “Slope (FSH-suppressing activity)” value in data set [1] is 0.414. In addition, the “Slope (RIA)” value in data set [2] worked out at 0.99.
